# Laboratory results from the supplement of paper PMC6411743.
# ± gives the standard deviation of the averaged measurements. The list shows a part of the results.
# Target: T1, MFN2 (UniProt O95140)
# T1 sequence (whole entry): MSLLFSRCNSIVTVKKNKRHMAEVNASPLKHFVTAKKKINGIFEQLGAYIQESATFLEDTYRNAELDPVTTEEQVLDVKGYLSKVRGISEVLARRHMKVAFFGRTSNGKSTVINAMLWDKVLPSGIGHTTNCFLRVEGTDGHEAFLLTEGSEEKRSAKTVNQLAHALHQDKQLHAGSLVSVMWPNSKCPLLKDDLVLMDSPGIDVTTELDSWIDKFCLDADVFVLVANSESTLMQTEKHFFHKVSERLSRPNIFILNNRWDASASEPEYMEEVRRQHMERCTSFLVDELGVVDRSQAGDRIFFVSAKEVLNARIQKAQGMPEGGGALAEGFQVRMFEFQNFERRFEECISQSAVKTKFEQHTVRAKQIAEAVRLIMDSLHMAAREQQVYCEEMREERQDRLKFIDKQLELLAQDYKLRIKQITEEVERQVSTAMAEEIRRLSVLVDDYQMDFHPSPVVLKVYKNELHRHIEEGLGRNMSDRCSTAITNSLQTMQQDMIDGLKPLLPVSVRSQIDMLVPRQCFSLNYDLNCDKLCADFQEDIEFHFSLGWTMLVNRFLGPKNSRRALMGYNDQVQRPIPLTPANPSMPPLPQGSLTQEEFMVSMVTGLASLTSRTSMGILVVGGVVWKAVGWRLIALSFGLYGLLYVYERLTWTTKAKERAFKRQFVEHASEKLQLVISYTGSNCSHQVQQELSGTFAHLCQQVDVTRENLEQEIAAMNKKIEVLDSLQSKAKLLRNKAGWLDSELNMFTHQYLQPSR
# Test: NP40-soluble protein abundance relative to vehicle (solubility fold change) (ratio); higher = more soluble protein in presence of GTP
# Procedure: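 Solubility proteome profiling in Jurkat crude lysate. Lysate was treated with Mg-GTP (0.1-10 mM) for 10 min at room temperature and 3 min at 37 °C, then solubilised with 0.8% NP40 and benzonase, followed by ultracentrifugation. Proteins were quantified by TMT10 LC-MS/MS; the value is the NP40-soluble abundance relative to the NP40-processed vehicle, from 3 independent experiments.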
smiles,measurement,setting,value
Nc1nc2c(ncn2[C@@H]2O[C@H](COP(=O)(O)OP(=O)(O)OP(=O)(O)O)[C@@H](O)[C@H]2O)c(=O)[nH]1 [guanosine triphosphate],NP40-soluble protein abundance,concentration: 0.1mM,0.993 ± 0.1
same,NP40-soluble protein abundance,concentration: 0.5mM,0.98 ± 0.15
same,NP40-soluble protein abundance,concentration: 1mM,0.868 ± 0.11
same,NP40-soluble protein abundance,concentration: 2mM,0.976 ± 0.13
same,NP40-soluble protein abundance,concentration: 4mM,0.982 ± 0.1
same,NP40-soluble protein abundance,concentration: 6mM,0.941 ± 0.08
same,NP40-soluble protein abundance,concentration: 8mM,0.905 ± 0.17
same,NP40-soluble protein abundance,concentration: 10mM,0.928 ± 0.082
